The list shows a part of the results.
System: KLF4 + histone octamer
Assay: EMSA with sequencing
Conditions: 10 mM Tris-Cl pH 7.5, 50 mM NaCl, 1 mM DTT, 0.25 mg/ml BSA, 2 mM MgCl2, 0.025% Nonidet P-40, 5% glycerol; 28 nM nucleosome library; 10 min on ice then 30 min …; high values mean tight binding; double strand, one strand shown

Sequence	binding signal (log2 relative supershift)
GATGGACCCTATACGCGGCATTTCTGTAGGACCCACCCACCTTCCACCCACATCTCCTCTCTAACCCCCGCTCCCAGTGCCTCACCTCCTGGCCTAAGCCCCGCCCATGAGCCATCCGACCCTGCCTCCCTAGGGTAACAAGGGTGGCGTGAGCGTGCGCCTGGCGGCCTTCGGGCACATGCTCTGCTTCCTGAACTGCCACTTGCCTGCTGCCAGTCGGATAGTGTTCC	2.43
GATGGACCCTATACGCGGCAGTAAGGTGGGCCCTTCACACCATGTGACTGGTATCCTTAAAAGAAGAAGAGACTCAGAGGGAAGACAGCCATGTGCAGCTGGAATGATGCATCTGAAGCCAAGGAATGCCACGCATTGCCAGCCACCACCCAAAACTGGAAAAAGTCAGGAAGGATTCTTCCCTAGAACCTTCAAAGGCAGCACAGCCCTTGCCAGTCGGATAGTGTTCC	2.53
GATGGACCCTATACGCGGCGGGAGCTCCACTGAGGAGGGTGTGAGACATCACCAGCTGTGCCTGCATCCCCATCACAATCTCATAGAGAGCGGGAACAGCTTCCCAGGGAACAGCTCCGCACCCTGGGCATGAACACGAGTGCGTGTGTGTGACTATGAGAGTGTGTGAGGGTGTATTTGGGCATGAGTGTGCTGTGTGCATGTGTATATTGCCAGTCGGATAGTGTTCC	2.15
GATGGACCCTATACGCGGCTGCCACCCTTGGCTGTACCAAGCTCTGGGAAGGAAGGAGGGGACGTGTCCCAGGTACCCCCTCCACCCACATTGGTGAGGCTGACTCAGGCCCCAGCCACGTGTCCCAACCTGCCCTGCGCGTCCCAGAGGGGAAGGAAGATATTCCAATGCTCCCAGGAGGCTGAGGTTGGGCAGGGAGCAGGAGAGAGGTGCCAGTCGGATAGTGTTCC	2.4

From paper PMC12370185
